Values of other authors in US20220331492A1, “COMPOSITION AND METHOD FOR CONTROLLED DRUG RELEASE FROM A TISSUE” (Bard Shannon Limited, priority 2017, published 2022).
Some entries share one result that the patent states for a list of compounds.

System: various bacterial strains
Conditions: drug mixed with fibrin glue, cited from earlier work

## CN[C@H](CC(C)C)C(=O)N[C@H]1C(=O)N[C@@H](CC(N)=O)C(=O)N[C@H]2C(=O)N[C@H]3C(=O)N[C@H](C(=O)N[C@H](C(=O)O)c4cc(O)cc(O)c4-c4cc3ccc4O)[C@H](O)c3ccc(c(Cl)c3)Oc3cc2cc(c3O[C@@H]2O[C@H](CO)[C@@H](O)[C@H](O)[C@H]2O[C@H]2C[C@](C)(N)[C@H](O)[C@H](C)O2)Oc2ccc(cc2Cl)[C@H]1O [vancomycin]
  elution time: up to 72 hours
Release according to concentration gradient
  period in which most of the drug was released: ≤ 24 h
